Experimental data from article doi:10.1101/2025.05.14.653660.

Amino acid sequences for entries named in this document (tags omitted). A change or cut given only in a name is not applied to a line headed by its entry.
UniProt Q96KQ7: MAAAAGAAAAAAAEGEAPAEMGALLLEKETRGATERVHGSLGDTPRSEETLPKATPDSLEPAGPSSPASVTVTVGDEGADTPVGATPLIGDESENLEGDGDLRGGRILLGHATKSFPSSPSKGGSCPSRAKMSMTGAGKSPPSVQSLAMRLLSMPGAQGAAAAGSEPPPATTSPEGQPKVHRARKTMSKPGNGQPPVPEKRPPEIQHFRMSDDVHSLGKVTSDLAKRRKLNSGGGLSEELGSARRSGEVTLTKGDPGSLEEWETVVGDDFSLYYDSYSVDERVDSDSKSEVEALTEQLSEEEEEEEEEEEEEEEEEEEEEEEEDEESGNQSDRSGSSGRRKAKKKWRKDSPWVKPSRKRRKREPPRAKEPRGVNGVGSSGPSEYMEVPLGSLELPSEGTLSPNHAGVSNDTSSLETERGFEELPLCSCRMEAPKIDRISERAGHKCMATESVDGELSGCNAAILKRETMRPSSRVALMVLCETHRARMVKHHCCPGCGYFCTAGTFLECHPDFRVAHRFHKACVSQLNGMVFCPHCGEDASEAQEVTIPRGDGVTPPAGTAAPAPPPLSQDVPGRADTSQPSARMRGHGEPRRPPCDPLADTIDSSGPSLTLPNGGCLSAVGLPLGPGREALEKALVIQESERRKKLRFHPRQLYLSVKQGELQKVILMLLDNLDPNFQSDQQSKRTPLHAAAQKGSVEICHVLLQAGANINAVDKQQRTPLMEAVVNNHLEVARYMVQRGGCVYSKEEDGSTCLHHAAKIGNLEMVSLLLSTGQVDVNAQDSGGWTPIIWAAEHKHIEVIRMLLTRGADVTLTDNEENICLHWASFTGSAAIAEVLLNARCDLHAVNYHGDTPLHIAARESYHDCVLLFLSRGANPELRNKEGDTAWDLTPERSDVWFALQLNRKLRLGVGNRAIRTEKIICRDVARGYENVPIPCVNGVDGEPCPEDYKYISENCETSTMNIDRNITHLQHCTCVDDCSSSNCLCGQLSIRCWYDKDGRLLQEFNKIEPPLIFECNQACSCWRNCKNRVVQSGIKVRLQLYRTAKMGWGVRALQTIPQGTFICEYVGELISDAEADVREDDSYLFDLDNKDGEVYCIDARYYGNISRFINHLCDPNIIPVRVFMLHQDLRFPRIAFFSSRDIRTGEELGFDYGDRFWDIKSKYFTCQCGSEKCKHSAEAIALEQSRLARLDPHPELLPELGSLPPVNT

T1: FLAG-tagged RUNX1T1 (UniProt Q06455)
T1 sequence: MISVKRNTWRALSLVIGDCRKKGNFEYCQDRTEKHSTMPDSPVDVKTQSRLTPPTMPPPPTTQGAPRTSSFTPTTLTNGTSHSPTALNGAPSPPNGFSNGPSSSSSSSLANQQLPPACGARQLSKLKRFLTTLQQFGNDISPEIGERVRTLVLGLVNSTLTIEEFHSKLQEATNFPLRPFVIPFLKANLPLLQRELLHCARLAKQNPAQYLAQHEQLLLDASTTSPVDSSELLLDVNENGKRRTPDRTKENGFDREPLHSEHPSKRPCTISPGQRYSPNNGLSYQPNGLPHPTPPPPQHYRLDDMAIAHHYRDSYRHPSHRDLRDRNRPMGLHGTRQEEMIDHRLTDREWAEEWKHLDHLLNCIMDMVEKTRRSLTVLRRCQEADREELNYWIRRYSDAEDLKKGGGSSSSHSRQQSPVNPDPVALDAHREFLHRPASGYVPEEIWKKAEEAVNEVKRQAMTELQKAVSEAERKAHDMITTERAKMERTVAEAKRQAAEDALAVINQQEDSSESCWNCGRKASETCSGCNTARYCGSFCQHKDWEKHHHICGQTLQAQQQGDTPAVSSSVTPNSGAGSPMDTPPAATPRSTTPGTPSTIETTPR


Target: T1, FLAG-tagged RUNX1T1
Experiment: affinity purification with mass spectrometry

binding	Molecule
binds	EHMT2/G9A (from UniProt Q96KQ7 1-1210)
binds	LASP1 (protein, UniProt Q14847 1-261) MNPNCARCGKIVYPTEKVNCLDKFWHKACFHCETCKMTLNMKNYKGYEKKPYCNAHYPKQSFTMVADTPENLRLKQQSELQSQVRYKEEFEKNKGKGFSVVADTPELQRIKKTQDQISNIKYHEEFEKSRMGPSGGEGMEPERRDSQDGSSYRRPLEQQQPHHIPTSAPVYQQPQQQPVAQSYGGYKEPAAPVSIQRSAPGGGGKRYRAVYDYSAADEDEVSFQDGDTIVNVQQIDDGWMYGTVERTGDTGMLPANYVEAI
binds	UHRF1 (protein, UniProt Q96T88 1-793) MWIQVRTMDGRQTHTVDSLSRLTKVEELRRKIQELFHVEPGLQRLFYRGKQMEDGHTLFDYEVRLNDTIQLLVRQSLVLPHSTKERDSELSDTDSGCCLGQSESDKSSTHGEAAAETDSRPADEDMWDETELGLYKVNEYVDARDTNMGAWFEAQVVRVTRKAPSRDEPCSSTSRPALEEDVIYHVKYDDYPENGVVQMNSRDVRARARTIIKWQDLEVGQVVMLNYNPDNPKERGFWYDAEISRKRETRTARELYANVVLGDDSLNDCRIIFVDEVFKIERPGEGSPMVDNPMRRKSGPSCKHCKDDVNRLCRVCACHLCGGRQDPDKQLMCDECDMAFHIYCLDPPLSSVPSEDEWYCPECRNDASEVVLAGERLRESKKKAKMASATSSSQRDWGKGMACVGRTKECTIVPSNHYGPIPGIPVGTMWRFRVQVSESGVHRPHVAGIHGRSNDGAYSLVLAGGYEDDVDHGNFFTYTGSGGRDLSGNKRTAEQSCDQKLTNTNRALALNCFAPINDQEGAEAKDWRSGKPVRVVRNVKGGKNSKYAPAEGNRYDGIYKVVKYWPEKGKSGFLVWRYLLRRDDDEPGPWTKEGKDRIKKLGLTMQYPEGYLEALANREREKENSKREEEEQQEGGFASPRTGKGKWKRKSAGGGPSRAGSPRRTSKKTKVEPYSLTAQQSSLIREDKSNAKLWNEVLASLKDRPASGSPFQLFLSKVEETFQCICCQELVFRPITTVCQHNVCKDCLDRSFRAQVFSCPACRYDLGRSYAMQVNQPLQTVLNQLFPGYGNGR

These are yes or no findings as the source states them, for the method shown. In cells and extracts the contact can be indirect. Here binding means that the protein was enriched with, or labelled near, the bait; the list need not be complete. Sequences can lack the tags named with a protein.
